# Construct, isoform or probe ends are uncertain for at least one entry. Where a protein sequence is shown, tags need not be part of it.
# Target: T1, SPEN RRM 1-4 (Homo sapiens) (UniProt Q96T58)
# T1 sequence (limits assumed): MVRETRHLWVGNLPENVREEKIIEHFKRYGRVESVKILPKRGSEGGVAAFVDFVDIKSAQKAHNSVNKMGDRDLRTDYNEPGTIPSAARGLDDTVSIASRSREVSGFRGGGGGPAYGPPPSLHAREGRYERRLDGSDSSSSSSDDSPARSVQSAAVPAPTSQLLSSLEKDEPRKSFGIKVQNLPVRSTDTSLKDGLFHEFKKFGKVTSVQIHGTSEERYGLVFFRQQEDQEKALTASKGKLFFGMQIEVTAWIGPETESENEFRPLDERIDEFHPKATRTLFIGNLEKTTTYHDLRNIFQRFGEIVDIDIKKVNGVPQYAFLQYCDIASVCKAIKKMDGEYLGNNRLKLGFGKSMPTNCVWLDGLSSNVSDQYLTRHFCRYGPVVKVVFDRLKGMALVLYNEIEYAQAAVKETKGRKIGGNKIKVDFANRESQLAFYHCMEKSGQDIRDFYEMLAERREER
# Test: competition with a labelled probe
# Settings: unlabeled SRA displaces 1 µM Cy3-XIST A-full at 10 µM protein; EMSA: 20 mM Tris-HCl pH 7.5, 150 mM KCl, 5 mM MgCl2, 10% glycerol, room temperature 30 min, 2 nM each labeled RNA (multiplexed), 4.5% TBE native gel; recombinant protein
sequence,measurement,value
GUACCAGGUAUGUGAUGACAUCAGCCGACGCCUGGCACUGCUGCAGGAACAGUGGGCUGGAGGAAAGUUGUCAAUACCUGUAAAGAAGAGAAUGGCUCUACUGGUGCAAGAGCUUUCAAGCCACCGGUGGGACGCAGCAGAUGACAUCCACCGCUCCCUCAUGGUUGACCAUGUGACUGAGGUCAGUCAGUGGAUGGUAGGAGUUAAAAGAUUAAUUGCAGAAAAGAGGAGUCUGUUUUCAGAGGAGGCAGCCAAUGAAGAGAAAUCUGCAGCCACAGCUGAGAAGAACCAUACCAUACCAGGCUUCCAGCAGGCUUCAUAAUCCUCGGUUCCCCAGACUCACCGGACACCAUCUCCU [SRA],binding result,binds
